According to doi:10.1101/2020.05.26.114710:
These are yes or no findings as the source states them, for the method shown. Binding seen in cells or lysates may run through a third protein. A yes stands for co-enrichment or nearness to the bait. Other partners may have been found.

Protein sequences, listed by entry. Tags and fused reporters are not part of them. Lines headed by an entry give the natural chain unless they say otherwise; changes in a name come on top.
UniProt Q8NFJ5, whole entry, stated change not applied: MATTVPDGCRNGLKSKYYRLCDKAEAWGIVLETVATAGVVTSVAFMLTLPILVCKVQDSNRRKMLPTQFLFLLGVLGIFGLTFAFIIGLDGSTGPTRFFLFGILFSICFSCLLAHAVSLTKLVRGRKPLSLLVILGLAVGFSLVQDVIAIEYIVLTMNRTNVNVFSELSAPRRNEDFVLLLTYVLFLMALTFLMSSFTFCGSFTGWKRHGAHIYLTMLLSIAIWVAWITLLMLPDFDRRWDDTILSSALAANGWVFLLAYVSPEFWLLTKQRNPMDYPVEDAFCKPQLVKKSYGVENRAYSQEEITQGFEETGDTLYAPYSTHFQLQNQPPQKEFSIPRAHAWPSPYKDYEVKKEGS

Target: GPRC5A (UniProt Q8NFJ5)
Assay: affinity purification with mass spectrometry

Substance: Gγ12 (from UniProt Q9UBI6 1-72)
- binding: binds
